Assay [1] deals with T1, Lrmp-Flag (mouse) (UniProt Q60664).
T1 sequence: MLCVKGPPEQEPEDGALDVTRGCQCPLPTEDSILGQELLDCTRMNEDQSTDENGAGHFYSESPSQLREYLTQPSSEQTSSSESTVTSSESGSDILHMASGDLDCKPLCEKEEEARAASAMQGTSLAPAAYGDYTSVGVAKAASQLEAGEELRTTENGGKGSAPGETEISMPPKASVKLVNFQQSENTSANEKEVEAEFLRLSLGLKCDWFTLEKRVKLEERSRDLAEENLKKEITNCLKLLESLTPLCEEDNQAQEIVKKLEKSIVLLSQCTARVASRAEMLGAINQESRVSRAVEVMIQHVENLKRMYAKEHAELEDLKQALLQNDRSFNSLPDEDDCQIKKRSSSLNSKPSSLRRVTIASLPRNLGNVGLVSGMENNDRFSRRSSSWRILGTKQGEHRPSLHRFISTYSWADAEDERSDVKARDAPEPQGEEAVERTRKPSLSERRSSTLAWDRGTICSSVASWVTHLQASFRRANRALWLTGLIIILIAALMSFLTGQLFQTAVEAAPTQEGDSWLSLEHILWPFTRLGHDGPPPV
As to the kind of experiment: co-IP; MEFs co-transfected with Lrmp-Flag and ITPR2-HA; co-IP with an anti-Flag antibody, Western blot.

Sequences of proteins named here, by UniProt entry; tags and fusion partners are left off.
UniProt Q9Z329: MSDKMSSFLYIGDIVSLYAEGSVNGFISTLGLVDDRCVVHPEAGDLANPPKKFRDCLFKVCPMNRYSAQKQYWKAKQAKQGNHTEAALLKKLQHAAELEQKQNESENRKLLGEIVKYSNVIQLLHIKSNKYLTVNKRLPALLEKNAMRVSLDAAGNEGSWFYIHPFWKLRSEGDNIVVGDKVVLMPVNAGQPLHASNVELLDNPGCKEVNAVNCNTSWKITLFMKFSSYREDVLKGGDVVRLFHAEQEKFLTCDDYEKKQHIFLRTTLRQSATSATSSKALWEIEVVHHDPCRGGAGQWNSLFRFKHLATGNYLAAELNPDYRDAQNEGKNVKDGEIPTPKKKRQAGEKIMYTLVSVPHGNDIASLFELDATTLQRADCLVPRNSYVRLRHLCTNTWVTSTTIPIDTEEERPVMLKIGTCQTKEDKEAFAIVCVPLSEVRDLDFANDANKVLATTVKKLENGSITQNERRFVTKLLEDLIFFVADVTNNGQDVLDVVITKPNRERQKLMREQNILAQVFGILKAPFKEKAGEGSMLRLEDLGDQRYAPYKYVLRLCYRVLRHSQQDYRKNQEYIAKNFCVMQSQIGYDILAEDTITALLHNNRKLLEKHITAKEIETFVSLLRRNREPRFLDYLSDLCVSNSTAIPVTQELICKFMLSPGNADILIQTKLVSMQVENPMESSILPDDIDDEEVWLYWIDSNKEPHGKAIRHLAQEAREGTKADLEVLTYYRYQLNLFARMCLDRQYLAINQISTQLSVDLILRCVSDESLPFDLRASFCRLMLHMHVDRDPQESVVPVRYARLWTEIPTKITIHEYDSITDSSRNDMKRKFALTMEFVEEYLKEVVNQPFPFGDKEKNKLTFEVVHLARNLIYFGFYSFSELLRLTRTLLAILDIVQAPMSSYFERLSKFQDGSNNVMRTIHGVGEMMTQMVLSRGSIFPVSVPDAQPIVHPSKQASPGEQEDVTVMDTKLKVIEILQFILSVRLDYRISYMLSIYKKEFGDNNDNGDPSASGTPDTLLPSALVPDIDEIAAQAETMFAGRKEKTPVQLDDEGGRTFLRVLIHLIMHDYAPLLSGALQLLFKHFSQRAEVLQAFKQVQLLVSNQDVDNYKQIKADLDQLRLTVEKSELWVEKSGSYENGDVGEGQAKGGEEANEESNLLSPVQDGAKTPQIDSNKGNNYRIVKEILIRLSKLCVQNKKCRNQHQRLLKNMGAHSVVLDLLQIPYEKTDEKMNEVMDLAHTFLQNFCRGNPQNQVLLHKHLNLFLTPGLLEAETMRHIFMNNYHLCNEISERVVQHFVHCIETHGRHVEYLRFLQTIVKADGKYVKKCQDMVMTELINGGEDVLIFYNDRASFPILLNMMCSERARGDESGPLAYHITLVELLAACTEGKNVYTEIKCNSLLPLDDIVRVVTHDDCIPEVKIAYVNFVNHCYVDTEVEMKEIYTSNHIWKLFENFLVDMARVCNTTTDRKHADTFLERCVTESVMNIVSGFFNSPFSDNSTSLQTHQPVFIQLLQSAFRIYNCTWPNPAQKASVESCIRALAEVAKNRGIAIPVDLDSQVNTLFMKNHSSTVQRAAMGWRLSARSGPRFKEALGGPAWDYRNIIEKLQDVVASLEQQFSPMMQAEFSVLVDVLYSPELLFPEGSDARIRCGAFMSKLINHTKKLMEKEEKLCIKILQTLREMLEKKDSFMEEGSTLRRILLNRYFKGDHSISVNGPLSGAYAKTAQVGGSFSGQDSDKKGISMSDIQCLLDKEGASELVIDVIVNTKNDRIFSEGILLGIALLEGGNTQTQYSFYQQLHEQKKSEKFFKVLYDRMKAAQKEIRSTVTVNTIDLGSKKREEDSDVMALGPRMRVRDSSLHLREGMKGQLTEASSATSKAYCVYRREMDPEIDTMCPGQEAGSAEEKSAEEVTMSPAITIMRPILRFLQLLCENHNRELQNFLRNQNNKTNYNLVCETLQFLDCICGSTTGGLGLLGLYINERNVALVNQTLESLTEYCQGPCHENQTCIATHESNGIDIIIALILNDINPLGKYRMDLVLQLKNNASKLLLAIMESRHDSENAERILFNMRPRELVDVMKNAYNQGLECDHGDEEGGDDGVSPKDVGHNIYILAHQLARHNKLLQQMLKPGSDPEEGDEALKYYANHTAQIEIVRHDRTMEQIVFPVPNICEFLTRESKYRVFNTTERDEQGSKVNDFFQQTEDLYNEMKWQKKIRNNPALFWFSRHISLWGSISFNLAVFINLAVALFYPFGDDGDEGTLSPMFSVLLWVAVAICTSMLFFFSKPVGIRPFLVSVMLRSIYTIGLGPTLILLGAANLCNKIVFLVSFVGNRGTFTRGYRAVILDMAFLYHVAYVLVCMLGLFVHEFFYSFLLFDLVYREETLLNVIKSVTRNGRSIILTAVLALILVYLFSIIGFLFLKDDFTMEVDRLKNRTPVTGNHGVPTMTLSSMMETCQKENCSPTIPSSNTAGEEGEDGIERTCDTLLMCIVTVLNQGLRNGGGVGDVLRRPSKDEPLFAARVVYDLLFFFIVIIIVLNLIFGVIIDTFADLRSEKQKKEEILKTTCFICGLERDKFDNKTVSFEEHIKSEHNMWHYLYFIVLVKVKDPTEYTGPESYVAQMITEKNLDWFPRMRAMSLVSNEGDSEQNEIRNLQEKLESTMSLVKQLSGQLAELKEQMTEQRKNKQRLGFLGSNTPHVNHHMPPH

Assay [2] concerns the target T2, full-length Lrmp-Flag (mouse) (UniProt Q60664).
T2 sequence: T1 sequence
As to the kind of experiment: co-IP; H1299 cells co-transfected with Flag-tagged Lrmp (full length or deletion mutants) and ITPR2-HA; anti-Flag and anti-HA agarose beads, Western blot.

Assay [3] deals with T3, Lrmp (mouse (endogenous in small intestinal tissue)) (UniProt Q60664).
T3 sequence: T1 sequence
In words: proximity ligation; in situ Duolink PLA on FFPE sections of mouse small intestine with anti-Lrmp and anti-ITPR2 antibodies; tuft cells identified by Dclk1 staining; Lrmp-/- tissue as control.

These are yes or no findings as the source states them, for the method shown. In cells and extracts the contact can be indirect. Some results given as binding are weak or reduced against the parent protein; the word gives no strength. For part of these data: Where a sequence is shown, tags or fusion partners need not be part of it.

“ITPR2-HA (from UniProt Q9Z329 1-2701) (receptor)”: in assay [1], the binding entry is “binds”.

Turning to “WT ITPR2-HA (from UniProt Q9Z329 1-2701) (receptor)”, in assay [2], the binding result is recorded as “binds”.

“ITPR2 (from UniProt Q9Z329 1-2701) (receptor)”: in assay [3], the binding entry is reported as “binds”.

The record behind these values is publication PMC8184793.
